Experimental data taken from patent US20130217613A1 (MARQUETTE UNIVERSITY, published 2013).
Results are given in words; binding and its absence hold for the method and conditions named. In cells and extracts the contact can be indirect. Binding can be weak; no strength is given. Tags and fused reporters may be left off the sequences shown.

B1: GST-tagged RSP3 96-180 (contains the RIIa-binding amphipathic helix AHR at a.a. 161-178) (protein, not shown: a dimerising Fc or GST)
chain: HIDIQTDVYLEELTDTVPEADTSTQTDAFLDRPPTPLFVPQKTGTDAITQIENGDLFDFDFEVEPILEVLVGKVLEQGLMEVLEE
B2: GST-tagged RSP3 280-308 (contains the Dpy-30-binding amphipathic helix AHD) (peptide, not shown: a dimerising Fc or GST)
chain: PWLKEQAIGYLARGVVARRVVDKLVEDAA

How the values were obtained:
[1] = target: His-tagged RIIa domain from RSP7 (Chlamydomonas); assay: Ni-NTA pulldown of co-expressed proteins
[2] = target: His-tagged RIIa domain from RSP7 (Chlamydomonas); assay: Ni-NTA pulldown of co-expressed proteins, Coomassie gel
[3] = target: His-tagged RIIa domain from RSP7 (Chlamydomonas); assay: Ni-NTA pulldown (discussion of Example 2)
[4] = target: His-tagged RIIa domain from RSP7 (Chlamydomonas); assay: Ni-NTA pulldown (discussion of Example 1)

Binder | binding [1] | binding [2] | binding [3] | binding [4]
B1 | binds | binds | binds | binds
B2 | – | no binding | – | –
